Patent US20250288553A1, “Antimicrobial Compositions and Uses for Treatment of Clostridioides difficile, Mycobacterium tuberculosis, and Enterococcus faecalis Infection” (priority 2022, published 2025)
For some assays here: At least one compound was matched to its structure with a doubt left. Some entries share one result that the patent states for a list of compounds.

Tests used:
[1] = test system: Bacillus subtilis ATCC 23857; assay: MIC against B. subtilis, REMA; details: visual, 24 h
[2] = test system: Mtb; details: at a concentration of 12.5 μg/mL; cited from earlier work
[3] = test system: Clostridioides difficile NAP1; assay: MIC against C. difficile NAP1, modified broth microdilution; details: 48 h, anaerobic
[4] = test system: Staphylococcus aureus ATCC 25923; assay: MIC against S. aureus, REMA; details: visual, 24 h
[5] = test system: Enterococcus faecalis ATCC 29212; assay: MIC against E. faecalis, REMA; details: visual, 24 h

CC1(C)CCC[C@]2(C)[C@H]3C=C4C=C(O)C(=O)C=C4O[C@@]3(C)CC[C@@H]12 [Compound 1, (+)-Puupehenone]
MIC B. subtilis [1]: no observable activity | inhibition of Mtb [2]: 99% | MIC C. difficile [3]: 2.0 to 4.0 µg/mL | MIC S. aureus [4]: no observable activity | MIC E. faecalis [5]: no observable activity
